Laboratory results: paper doi:10.1101/2025.07.31.667977
These are yes or no findings as the source states them, for the method shown. In cells and extracts the contact can be indirect. Some results given as binding are weak or reduced against the parent protein; the word gives no strength.

The chains behind the UniProt entries cited, without tags or fusion partners. Where a name states a change or a piece, a line headed by the entry shows the natural chain unless it says otherwise. Residues count along the entry.
UniProt O43567, 35-381: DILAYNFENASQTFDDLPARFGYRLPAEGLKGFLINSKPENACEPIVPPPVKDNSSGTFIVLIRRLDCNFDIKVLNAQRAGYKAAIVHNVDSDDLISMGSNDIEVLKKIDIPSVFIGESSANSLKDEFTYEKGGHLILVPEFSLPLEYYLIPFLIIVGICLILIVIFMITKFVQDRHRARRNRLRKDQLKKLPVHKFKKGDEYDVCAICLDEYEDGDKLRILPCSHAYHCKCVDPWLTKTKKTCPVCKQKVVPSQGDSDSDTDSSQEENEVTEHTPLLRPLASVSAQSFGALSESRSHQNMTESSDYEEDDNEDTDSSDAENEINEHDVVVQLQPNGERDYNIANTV
UniProt Q9NVJ2, whole entry: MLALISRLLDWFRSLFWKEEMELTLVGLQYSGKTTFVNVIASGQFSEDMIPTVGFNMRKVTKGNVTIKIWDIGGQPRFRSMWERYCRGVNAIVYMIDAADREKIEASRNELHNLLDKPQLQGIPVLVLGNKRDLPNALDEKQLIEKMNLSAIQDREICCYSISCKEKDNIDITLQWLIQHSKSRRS

Key:
Test in all cases: co-IP
[1] = target: RING finger protein 13 (RNF13), wild type, HA-tagged (human) (UniProt O43567)
[2] = target: ADP-ribosylation factor-like protein 8B (Arl8B), wild type, FLAG-tagged (human) (UniProt Q9NVJ2)
[3] = target: Arl8B Q75L (constitutively active, GTP-locked), FLAG-tagged (human) (UniProt Q9NVJ2)
[4] = target: Arl8B T34N (constitutively inactive, GDP-locked), FLAG-tagged (human) (UniProt Q9NVJ2)

| Substance | binding [1] | also measured |
| --- | --- | --- |
| ADP-ribosylation factor-like protein 8B (Arl8B), wild type, FLAG-tagged (from UniProt Q9NVJ2-1 1-186) | binds | – |
| Arl8B F55A, FLAG-tagged (from UniProt Q9NVJ2-1 1-186) | no binding | – |
| RING finger protein 13 (RNF13), wild type, HA-tagged (from UniProt O43567-1 35-381) | – | binding [2]: binds; binding [3]: binds; binding [4]: binds |

More lines, main results first:

| binding [1] | Substance | also measured |
| --- | --- | --- |
| no binding | Arl8B E22D, FLAG-tagged (from UniProt Q9NVJ2-1 1-186) | – |
| binds | Arl8B, V5-tagged (from UniProt Q9NVJ2 1-186) | – |
| binds | endogenous Arl8B (from UniProt Q9NVJ2 1-186) | – |
